Measurements taken from PubChem BioAssay AID2417 (National Center for Advancing Translational Sciences (NCATS), 2010).
The campaign covered roughly 140,000 compounds. About 4,300 (3.1%) were called active. Inconclusive results, whose numbers are uncertain, are shown with a selection of clear calls.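 The calls were made as follows: active = readout at or below -70, meaning at least 70% loss of cells showing the perinucleolar compartment, a nuclear body marking cancer cells; inconclusive = readout between -30 and a set limit; inactive = the rest.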

assay: High Content Assay for Compounds that inhibit the Assembly of the Perinucleolar Compartment; conditions: PC3M PTB-GFP, PNC prevalence imaging, 16 h; at 10 µM; stronger effect = lower value;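 also: plate controls were DMSO wells for no effect and camptothecin positive control wells for full effect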
Summary of the method: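 PC3M cells stably expressing PTB-GFP, 750–1000 cells/well, treated 16 h at 37 °C with compound (23 nl of library stock), in duplicate. After paraformaldehyde fixation and Hoechst stain, imaged at 20x; PNC prevalence scored by image analysis.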

SMILES	activity change (PNC), negative = inhibition
CC(C)NC(=O)NC(=O)CSc1nnc(COc2ccccc2Cl)o1	inactive: 9.14%
O=C(CSc1nc2c(c(=O)n1-c1ccc(Cl)cc1)SCC2)Nc1ccc2c(c1)OCCO2	inconclusive: -48.2%
CCC(Nc1nc(-c2ccccc2)nc2ccccc12)C(=O)O (stereo not given)	inconclusive: -31.9%
CC(C)NC(=O)c1c2c(nc3ccccc13)CCCC2	inconclusive: -46.9%
COc1ccc(C(=O)Nc2ccc(Cl)cc2C(=O)NCc2ccco2)cc1OC	inconclusive: -36.9%
Cc1ccccc1N(CC(=O)O)S(C)(=O)=O	active: -104%
Cc1csc(NC(=O)c2c(O)c3cccc4c3n(c2=O)CCC4)n1	inconclusive: -34.1%
O=C1CCCCC(=O)N(c2ccccc2)c2ccccc21	inactive: 5.91%
O=c1cc(Nc2ccc3c(c2)OCCO3)[nH]c(=O)n1C1CCCCC1	inactive: -22.9%
Cc1cc(C)c(C#N)c(SCC(=O)OC2CCCCC2)n1	active: -83.3%
COc1ccc(-c2nnc3n2N=C(C)CS3)cc1	inactive: 78%
Cc1cc(C)nc(-n2nc(C)cc2Nc2ccccc2)n1	inactive: -23.5%
Cc1ccc(N(CC(=O)N/N=C/c2ccc(OC3CSC3)cc2)S(=O)(=O)c2ccccc2)c(C)c1	inconclusive: -43%
Cn1c(CCN2CCCCC2)nc2cc(NS(=O)(=O)c3ccc(F)cc3)ccc21	inconclusive: -36%
COc1ccc(-n2c(C)cc(/C=N/Nc3nnc(C)n3N)c2C)cc1	inactive: 22%
COC(=O)c1ccc(COc2ccccc2/C=N/NS(=O)(=O)c2ccccc2)cc1	inconclusive: -34.5%
COc1ccc(C(=O)Nc2ccc(N3CCN(C(=O)C(C)C)CC3)cc2)cc1[N+](=O)[O-]	inconclusive: -64.5%
Cc1ccc(C)c(S(=O)(=O)NC(CCC(N)=O)C(=O)O)c1 (stereo not given)	inconclusive: -56.4%
CC1CCCN(c2nc(NCc3ccco3)nc(N)c2[N+](=O)[O-])C1 (stereo not given)	inactive: 15.7%
CCCCNC(=O)N(C)c1nncnc1C(=O)NC	inconclusive: -69.5%
CCc1ccccc1NC(=O)CSC1=C(C#N)C(c2ccc3c(c2)OCO3)C2=C(CCCC2=O)N1 (stereo not given)	inconclusive: -50.6%
O=C(c1ccccc1)N1CCN(c2ncnc3sc4c(c23)CCC4)CC1	inactive: 2.98%
C=CCn1c(SCC(=O)N2CCc3ccccc3C2)nc2ccccc2c1=O	inactive: 5.84%

Filtered by structure: the entries above containing an aryl thioether with sulfur outside any ring (four)
SMILES	activity change (PNC), negative = inhibition
CC(C)NC(=O)NC(=O)CSc1nnc(COc2ccccc2Cl)o1	inactive: 9.14%
O=C(CSc1nc2c(c(=O)n1-c1ccc(Cl)cc1)SCC2)Nc1ccc2c(c1)OCCO2	inconclusive: -48.2%
Cc1cc(C)c(C#N)c(SCC(=O)OC2CCCCC2)n1	active: -83.3%
C=CCn1c(SCC(=O)N2CCc3ccccc3C2)nc2ccccc2c1=O	inactive: 5.84%

(cont.)

SMILES	activity change (PNC), negative = inhibition
O=C(COc1ccc2ccccc2c1)NN1C(=O)c2ccccc2C1=O	inconclusive: -32.6%
CCN(CC)C(=O)c1sc2nc(N3CCOCC3)c3c(c2c1N)CCCC3	inconclusive: -41.9%
CCN(C(=O)CN1CCN(c2ccc(OC)cc2)CC1)c1c(N)n(Cc2ccccc2)c(=O)[nH]c1=O	inactive: 31.6%
CCCC(=O)NC(=S)Nc1ccc(Cl)cn1	inactive: 37.6%
CCOC(=O)c1ccc(NC(=O)CN2C(=O)CCC2=O)cc1	inactive: 5.37%
COc1cccc(C(=O)COc2ccc3c(C)c(Cc4ccccc4)c(=O)oc3c2C)c1	active: -100%
Cc1c(C)c2cc(Cl)c(O)c(CN(C)C)c2oc1=O	inconclusive: -35.6%
CSc1nc(-c2ccc(C)cc2)nc(C(Cl)Cl)n1	active: -106%
COC(=O)c1cn(NC(=O)C2CCCO2)c(=O)c2ccccc12 (stereo not given)	inactive: -1.33%
COc1ccc2c(c1)c(C(=O)OCCN(C)C)c(C)n2C	inactive: 13.4%
COc1ccc(CCNC(=O)COC(=O)c2cnc(C)cn2)cc1OC	inactive: 7.67%
CC1CC(C)CN(CCCNC(=O)c2ccc(CS(=O)(=O)Cc3ccccc3F)o2)C1 (stereo not given)	inconclusive: -30.8%
COc1ccc(-c2onc3ccc(Cl)cc23)cc1	inactive: -14%
CCOC(=O)C1CCCN(C(=O)c2ccccc2SCCOC)C1 (stereo not given)	inconclusive: -42.9%
CCC(C)N1C(=O)CCC1C(=O)N1CCN(c2ccc(F)cc2)CC1 (stereo not given)	inconclusive: -42.6%
CC(C)CNC(=O)COc1cccc(C(=O)NCc2ccccc2)c1	inactive: 40.2%
CCn1nc(C)c(C2C(C#N)=C(N)OC3=C2C(=O)CC(C)(C)C3)c1C (stereo not given)	inconclusive: -36%
COc1ccc(C2(CNC(=O)Cc3ccc(OC)c(OC)c3)CCOCC2)cc1	inactive: -1.71%
CCOc1ccc2nc(N3CCC(C(=O)N4CCN(c5ccccn5)CC4)CC3)sc2c1	inconclusive: -37%
Cn1cccc1Cc1nnc(SCC(=O)Nc2ccc(F)cc2F)n1-c1ccc(F)cc1	inconclusive: -60.6%
CCn1c(C)nc2cc(C(=O)OCCC(F)(F)F)ccc21	inconclusive: -38.8%
CCOC(=O)Cc1cc(=O)[nH]c(Nc2nc3ccccc3o2)n1	inconclusive: -42%
